These are yes or no findings as the source states them, for the method shown. Tags and fused reporters may be left off the sequences shown.
Biological target: GST-tagged BAG domain of BAG5 (Homo sapiens)
Assay: pull-down; GST-tagged BAG or BAGS domains on glutathione-Sepharose beads, washed with buffer B, mixed with purified Ubl4a proteins in vitro; immunoblot; both purified

B1: recombinant FLAG-tagged Ubl4a (full-length) (protein, UniProt P11441 1-157)
chain: MQLTVKALQGRECSLQVPEDELVSTLKQLVSEKLNVPVRQQRLLFKGKALADGKRLSDYSIGPNSKLNLVVKPLEKVLLEEGEAQRLADSPPPQVWQLISKVLARHFSAADASRVLEQLQRDYERSLSRLTLDDIERLASRFLHPEVTETMEKGFSK
binding: no binding

— publication PMC4392246, “Structure of a BAG6 (Bcl-2-associated Athanogene 6)-Ubl4a (Ubiquitin-like Protein 4a) Complex Reveals a Novel Binding Interface That Functions in Tail-anchored Protein Biogenesis*” (The Journal of Biological Chemistry, 2015)
